The results in this text go back to PubChem BioAssay AID250 (DTP/NCI, 2004).

The list is a part of this screen's results and no random one: it is rich in T/C values a quarter to a half above the control, in often repeated tests (any T/C) and in doses without a T/C. Other doses and runs of a compound stand elsewhere. T/C is the treated group as % of the vehicle group. Some doses have a count of surviving animals in place of a T/C: the source files T/C as zero there, which appears to mark a toxic dose or a test without result, not a measured value. Some doses without a T/C left all or most animals alive at the check, yet need not have been tolerated: survival well below the control is almost never listed, so the zero probably covers shortened survival too. Counts of survivors are from the toxicity check (mostly the fifth day) where no day follows; animals may have died later. Schedules are NCI's codes, read here as Q, the interval in days (D) or hours (H), X, the number of doses. Some schedule codes hold Z or #, which are not explained here. Some entries were tested several times; the results are listed from low to high.

This assay concerns BDF1 mice, L1210 leukemia sc, survival T/C. Kind of assay: NCI In Vivo Anticancer Drug Screen. Data for tumor model L1210 Leukemia (subcutaneous) in B6D2F1 (BDF1) mice. Conditions: higher T/C = longer survival. How it is done: The antitumor activity of compounds was measured in mice bearing transplantable tumors. Survival or tumor size were measured and the results are expressed as the measurement made in the treated group (T) divided by the measurement made in the vehicle treated control group (C). The tumor model used in this assay is L1210 Leukemia (subcutaneous) in B6D2F1 (BDF1) mice

[1] abbreviates: T/C endpoint: median survival time, dose: 23.0 mg/kg/injection, schedule: Q01DX Z (sc), vehicle: saline.
[2] abbreviates: T/C endpoint: median survival time, dose: 39.0 mg/kg/injection, schedule: Q01DX Z (sc), vehicle: saline.
Where [3] appears, read: T/C endpoint: median survival time, dose: 65.0 mg/kg/injection, schedule: Q01DX Z (sc), vehicle: saline.
[4] abbreviates: T/C endpoint: median survival time, dose: 108.0 mg/kg/injection, schedule: Q01DX Z (sc), vehicle: saline.
[5] abbreviates: T/C endpoint: median survival time, dose: 180.0 mg/kg/injection, schedule: Q01DX Z (sc), vehicle: saline.
Setting [6] is: T/C endpoint: median survival time, dose: 180.0 mg/kg/injection, schedule: Q01DX Z (sc), vehicle: water.
The mark [7] stands for this setting: T/C endpoint: median survival time, dose: 23.0 mg/kg/injection, schedule: Q01DX Z (sc), vehicle: methylcellulose (MC).
Where [8] appears, read: T/C endpoint: median survival time, dose: 108.0 mg/kg/injection, schedule: Q01DX Z (sc), vehicle: methylcellulose (MC).
The mark [9] stands for this setting: T/C endpoint: median survival time, dose: 180.0 mg/kg/injection, schedule: Q01DX Z (sc), vehicle: methylcellulose (MC).
Setting [10] is: T/C endpoint: median survival time, dose: 300.0 mg/kg/injection, schedule: Q01DX Z (sc), vehicle: methylcellulose (MC).
Where [11] appears, read: T/C endpoint: median survival time, dose: 500.0 mg/kg/injection, schedule: Q01DX Z (sc), vehicle: methylcellulose (MC).
[12] abbreviates: T/C endpoint: median survival time, dose: 4.7 mg/kg/injection, schedule: Q01DX Z (sc), vehicle: saline.
The mark [13] stands for this setting: T/C endpoint: median survival time, dose: 13.0 mg/kg/injection, schedule: Q01DX Z (sc), vehicle: saline.
The mark [14] stands for this setting: T/C endpoint: median survival time, dose: 60.0 mg/kg/injection, schedule: Q01DX Z (sc), vehicle: saline.
Setting [15] is: T/C endpoint: median survival time, dose: 100.0 mg/kg/injection, schedule: Q01DX Z (sc), vehicle: saline.

As to `COC(=N)N`, the survivor count is on record as 6 of 10 (T/C endpoint: median survival time, dose: 0.65 mg/kg/injection, schedule: Q01DX Z (sc), vehicle: methylcellulose (MC)); 5 of 10 (T/C endpoint: median survival time, dose: 1.08 mg/kg/injection, schedule: Q01DX Z (sc), vehicle: methylcellulose (MC)); 6 of 10 (T/C endpoint: median survival time, dose: 5.0 mg/kg/injection, schedule: Q01DX Z (sc), vehicle: methylcellulose (MC)).

With `Nc1nc2c(ncn2C2CC(O)C(CO)O2)c(=O)[nH]1` (centres undefined), the survivor count by setting is: (T/C endpoint: median survival time, dose: 130.0 mg/kg/injection, schedule: Q01DX Z (sc), vehicle: water) 2 of 8; (T/C endpoint: median survival time, dose: 216.0 mg/kg/injection, schedule: Q01DX Z (sc), vehicle: water) 0 of 8; (T/C endpoint: median survival time, dose: 360.0 mg/kg/injection, schedule: Q01DX Z (sc), vehicle: water) 2 of 8; (T/C endpoint: median survival time, dose: 600.0 mg/kg/injection, schedule: Q01DX Z (sc), vehicle: water) 0 of 8; (T/C endpoint: median survival time, dose: 1000.0 mg/kg/injection, schedule: Q01DX Z (sc), vehicle: water) 0 of 8.

With `CC(=O)Nc1ccc2c(Nc3ccc(NS(C)(=O)=O)cc3)c3ccccc3nc2c1`, under “T/C endpoint: mean survival time, dose: 25.0 mg/kg/injection, schedule: Q01DX009 (sc), vehicle: saline”, the survivor count is 10 of 10.

`CCOC(=O)NP(=O)(N1CC1(C)C)N1CC1(C)C` (centres undefined): the survivor count runs as follows: (T/C endpoint: median survival time, dose: 360.0 mg/kg/injection, schedule: Q01DX Z (sc), vehicle: methylcellulose (MC)) 10 of 10; (T/C endpoint: median survival time, dose: 600.0 mg/kg/injection, schedule: Q01DX Z (sc), vehicle: methylcellulose (MC)) 10 of 10; (T/C endpoint: median survival time, dose: 1000.0 mg/kg/injection, schedule: Q01DX Z (sc), vehicle: methylcellulose (MC)) 2 of 10.

With `Cc1cc(N)c2cc(NC(=O)CCCCCCCCC(=O)Nc3ccc4nc(C)cc(N)c4c3)ccc2n1`, the survivor count under setting [1] is reported as 4 of 10; the survivor count under setting [2] is 4 of 10; the survivor count under setting [3] is reported as 2 of 10; the survivor count under setting [4] is 2 of 10; the survivor count under setting [5] was 1 of 10.

Take `CN(C)Nc1ncnc2nc[nH]c12`: the survivor count under setting [6] is listed as 4 of 10.

Consider `C[C@]12C[C@H](O)[C@H]3[C@@H](CCC4=CC(=O)CC[C@@]43C)[C@@H]1CC[C@@H]2C(=O)CO`, for which the survivor count under setting [7] is listed as 3 of 10; the survivor count (T/C endpoint: median survival time, dose: 39.0 mg/kg/injection, schedule: Q01DX Z (sc), vehicle: methylcellulose (MC)) was 3 of 10; the survivor count (T/C endpoint: median survival time, dose: 65.0 mg/kg/injection, schedule: Q01DX Z (sc), vehicle: methylcellulose (MC)) is listed as 4 of 10; the survivor count under setting [8] is given as 2 of 10; the survivor count under setting [9] was 1 of 10; the survivor count under setting [10] was 2 of 10. Besides, the survivor count under setting [11] is listed as 1 of 10.

With `C[n+]1c2cc(N)ccc2cc2ccc(N)cc21`, the survivor count by setting is: (T/C endpoint: median survival time, dose: 39.0 mg/kg/injection, schedule: Q01DX Z (sc), vehicle: water) 0 of 8 and 4 of 10; (T/C endpoint: median survival time, dose: 65.0 mg/kg/injection, schedule: Q01DX Z (sc), vehicle: water) 0 of 10 and 0 of 8; (T/C endpoint: median survival time, dose: 108.0 mg/kg/injection, schedule: Q01DX Z (sc), vehicle: water) 0 of 10 and 0 of 8; under setting [6], 0 of 10 and 0 of 8; (T/C endpoint: median survival time, dose: 300.0 mg/kg/injection, schedule: Q01DX Z (sc), vehicle: water) 0 of 10 and 0 of 8; (T/C endpoint: median survival time, dose: 500.0 mg/kg/injection, schedule: Q01DX Z (sc), vehicle: water) 0 of 10.

Turning to `CC[C@H](c1ccc(O)cc1)[C@@H](CC)c1ccc(O)cc1`, the survivor count was 6 of 10 under setting [9], 6 of 10 under setting [10] and 5 of 10 under setting [11].

Turning to `COc1cc2c3c(c4ccc(OC)c(OC)c4c2cc1OC)CN1CCC[C@@H]1C3`, the survivor count (T/C endpoint: median survival time, dose: 39.0 mg/kg/injection, schedule: Q01DX Z (sc), vehicle: carboxymethylcellulose (CMC)) is given as 5 of 8.

For the compound `COc1ccc2cc1Oc1ccc(cc1)C[C@H]1c3cc(c(OC)cc3CCN1C)Oc1c(OC)c(OC)cc3c1[C@H](C2)N(C)CC3`, the survivor count reads like this: (T/C endpoint: median survival time, dose: 300.0 mg/kg/injection, schedule: Q01DX009 (sc), vehicle: methylcellulose (MC)) 5 of 8; (T/C endpoint: median survival time, dose: 600.0 mg/kg/injection, schedule: Q01DX009 (sc), vehicle: methylcellulose (MC)) 1 of 8.

Consider `C=CC(CO)N1CC1` (centres undefined), for which the survivor count (T/C endpoint: median survival time, dose: 3.0 mg/kg/injection, schedule: Q01DX Z (sc), vehicle: saline) is on record as 3 of 10; the survivor count under setting [12] is listed as 6 of 10; the survivor count (T/C endpoint: median survival time, dose: 5.0 mg/kg/injection, schedule: Q01DX Z (sc), vehicle: saline) is 2 of 10; the survivor count (T/C endpoint: median survival time, dose: 8.4 mg/kg/injection, schedule: Q01DX Z (sc), vehicle: saline) was 2 of 10 and 5 of 10; the survivor count under setting [13] is recorded as 2 of 10; the survivor count (T/C endpoint: median survival time, dose: 14.0 mg/kg/injection, schedule: Q01DX Z (sc), vehicle: saline) was 1 of 10 and 6 of 10. The survivor count is, setting by setting: (T/C endpoint: median survival time, dose: 21.6 mg/kg/injection, schedule: Q01DX Z (sc), vehicle: saline) 4 of 10; under setting [1], 6 of 10; under setting [2], 2 of 10; under setting [14], 0 of 10; under setting [3], 0 of 10; under setting [15], 0 of 10. In addition, the survivor count (T/C endpoint: median survival time, dose: 180.0 mg/kg/injection, schedule: Q01DX001 (sc), vehicle: saline) was 0 of 10 and the survivor count (T/C endpoint: median survival time, dose: 180.0 mg/kg/injection, schedule: Q## X Z (sc), vehicle: saline) is reported as 0 of 10.

As for `CC1(C)N=C(N)N=C(N)N1c1cccc(Br)c1`, the survivor count reads like this: under setting [7], 3 of 10; under setting [8], 6 of 10; under setting [4], 4 of 8; under setting [9], 2 of 10; under setting [5], 0 of 8 and 2 of 8; (T/C endpoint: median survival time, dose: 300.0 mg/kg/injection, schedule: Q01DX Z (sc), vehicle: saline) 0 of 8.

`C=CC(COC(C)=O)N1CC1` (centres undefined): the survivor count under setting [12] is on record as 1 of 10; the survivor count (T/C endpoint: median survival time, dose: 7.8 mg/kg/injection, schedule: Q01DX Z (sc), vehicle: saline) is reported as 1 of 10; the survivor count under setting [13] is given as 1 of 10; the survivor count (T/C endpoint: median survival time, dose: 22.0 mg/kg/injection, schedule: Q01DX Z (sc), vehicle: saline) is 1 of 10 and 6 of 10; the survivor count (T/C endpoint: median survival time, dose: 36.0 mg/kg/injection, schedule: Q01DX Z (sc), vehicle: saline) is recorded as 0 of 10; the survivor count under setting [14] is reported as 3 of 10. Moreover, the survivor count under setting [15] is reported as 0 of 10.

Turning to `C[C@]12C=CC(=O)C=C1CC[C@@H]1[C@@H]2[C@@H](O)C[C@@]2(C)[C@H]1CC[C@]2(O)C(=O)CO`, the survivor count runs as follows: under setting [8], 4 of 10; under setting [9], 4 of 10; under setting [10], 5 of 10; under setting [11], 4 of 10; (T/C endpoint: median survival time, dose: 833.0 mg/kg/injection, schedule: Q01DX Z (sc), vehicle: methylcellulose (MC)) 5 of 10.
